Test results as given in paper PMC6461802, “Coupling of ssRNA cleavage with DNase activity in type III-A CRISPR-Csm revealed by cryo-EM and biochemistry” (Cell Research, 2019).

Assays:
[1] = biological target: T1, Csm3 D33A of the Streptococcus thermophilus type III-A Csm complex (target ssRNA-bound state) (Streptococcus thermophilus DGCC8004); test: cryo-EM structure; target ssRNA-bound state: StCsm complex with 40 nt crRNA and 49 nt target ssRNA, Csm3 D33A; big (3.4 Å) and small (3.5 Å) particle populations; ~0.4 mg/mL, buffer 10 mM Tris-HCl pH 8.0, 150 mM NaCl, 3 mM DTT; both purified
T1 sequence: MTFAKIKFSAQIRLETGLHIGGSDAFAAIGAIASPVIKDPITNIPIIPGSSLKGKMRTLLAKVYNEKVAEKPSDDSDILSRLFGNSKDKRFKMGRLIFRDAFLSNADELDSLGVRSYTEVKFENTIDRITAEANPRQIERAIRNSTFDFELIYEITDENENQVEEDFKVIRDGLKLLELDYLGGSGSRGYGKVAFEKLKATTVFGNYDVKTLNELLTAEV

[2] = biological target: T2, Csm3 of the Streptococcus thermophilus type III-A Csm complex (wild type, apo state) (Streptococcus thermophilus DGCC8004); test: cryo-EM structure; apo state: StCsm complex with 40 nt crRNA, wild-type Csm3; big (3.4 Å) and small (3.3 Å) particle populations; ~0.4 mg/mL, buffer 10 mM Tris-HCl pH 8.0, 150 mM NaCl, 3 mM DTT; both purified
T2 sequence: T1 sequence with A33D

“Csm4 of the Streptococcus thermophilus type III-A Csm complex” was tested, and the binding [1] was “binds” and the binding [2] was “binds”.

Where a chain is given by its changes, count along the chain named. Results are given in words; binding and its absence hold for the method and conditions named. Binding calls can cover weak binding; strength is not graded here.
